# In PubChem BioAssay AID504834 (National Center for Advancing Translational Sciences (NCATS), 2011):
# Screen size: about 320,000 compounds; about 22,000 (6.9%) were called active. The inconclusive results got no clear call from the source; some entries with a clear call stand among them for comparison. Calls come from the whole dose curve; as a rule, active = well fitted inhibition curve with a large enough effect; inconclusive = small, poorly fitted or top-dose-only effect, or another doubt; inactive = no such curve, though single readings can be large or run the other way. Where the call is inconclusive, the potency comes from a doubtful curve fit.
# Assay: Primary qHTS for delayed death inhibitors of the malarial parasite plastid, 96 hour incubation
# Conditions: P. falciparum luciferase reporter growth; series mostly up to 28.7 µM
# Summary of the method: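 Two parasite generations (96 h, 37 C, 5% CO2) of compound exposure in infected erythrocytes (0.05% parasitemia, 2% hematocrit). Luciferase-reporter P. falciparum; decreased luminescence indicates inhibited growth, aimed at apicoplast-acting delayed death.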
# Potency is the fitted concentration of half-maximal effect.
row,SMILES,Potency
1,COc1cccc(NC(=O)c2ccnc(N3CCC(C(=O)NCc4cc(OC)ccc4OC)CC3)c2)c1,"inconclusive: 18.5 µM [inhibitor, single point]"
2,COc1cc2ncnc(NCc3ccc(C)cc3)c2cc1OC,"inconclusive: 11.7 µM [inhibitor, single point]"
3,O=C1ON=C(c2ccccc2)/C1=C/c1ccco1,"inconclusive: 0.928 µM [inhibitor, partial curve, poor fit]"
4,CC(C)(C)n1nnnc1C(c1cc2cc3c(cc2[nH]c1=O)OCCO3)N1CCSCC1 (stereo unspecified),"inconclusive: 1.65 µM [inhibitor, partial curve, poor fit]"
5,CCS(=O)(=O)N1CCN(c2nc(-c3ccccc3)cs2)CC1,"inconclusive: 18.5 µM [inhibitor, single point]"
6,O=C(CSc1nccc(=O)[nH]1)c1ccco1,inactive
7,CC(C)c1ccc(C(=O)NNC(=O)C2C3CCC(C3)C2C(=O)O)cc1 (stereo unspecified),inactive
8,Cc1cccc(C)c1NC(=S)N1CCCN(Cc2ccc(F)cc2)C1,inactive
9,COc1ccc(S(=O)(=O)Nc2ccc3c(c2)OCO3)cc1OC,"inconclusive: 18.5 µM [inhibitor, single point]"
10,CC1CCCN(C(=O)C(C)Nc2cc(Cl)ccc2N2CCOCC2)C1 (stereo unspecified),active: 0.657 µM
11,Cc1ccccc1N1C(=O)CN(Cc2sccc2C)C1=S,inactive
12,Cc1ccc(-n2nc3c(=O)n(CCCC(=O)N4CCCCC4)nc(C)c3c2C)cc1,"inconclusive: 14.7 µM [inhibitor, partial curve]"
13,Cc1cc(N2CCOCC2)nc2ccccc12,"inconclusive: 10.4 µM [inhibitor, partial curve, poor fit]"
14,CC1=C(C(=O)Nc2cccc(C(=O)NCc3ccccc3C)c2)SCCO1,inactive
15,CCCCc1cc(=O)oc2cc(C)cc(OCC(=O)N3CCC(C(=O)O)CC3)c12,"inconclusive: 18.5 µM [inhibitor, single point]"
16,O=C(NCc1ccc(Cl)s1)C1CCC(=O)N(CCc2ccccn2)C1 (stereo unspecified),"inconclusive: 20.8 µM [inhibitor, partial curve, poor fit]"
17,COc1ccc(-c2cc(C(F)F)n3ncc(C(=O)N4CCN5CCCC5C4)c3n2)cc1 (stereo unspecified),active: 9.28 µM
18,O=C(Cn1nnc2ccccc2c1=O)NC1CCCc2ccccc21 (stereo unspecified),active: 10.4 µM
19,NC12CC3CC(C1)CC(CC(=O)O)(C3)C2,inactive
20,COc1ccc2nc(-c3ccc(N)cc3)[nH]c2c1,"inconclusive: 14.7 µM [inhibitor, partial curve, poor fit]"
21,COc1cc2nc(CN3CCC(Cc4ccccc4)CC3)[nH]c(=O)c2cc1OC,"inconclusive: 11.7 µM [inhibitor, single point]"
22,CCc1ccccc1NC(=O)c1ccc(-n2c(C)ccc2C)cc1,active: 14.7 µM
23,COc1ccc(-c2ccc3c(N)c(C(=O)c4cccc(OC)c4)sc3n2)cc1,inactive
24,COc1ccc(NC(=O)C(c2ccc(C)cc2)N(C)C(=O)Cc2cccs2)cc1 (stereo unspecified),"inconclusive: 4.15 µM [inhibitor, partial curve, poor fit]"

row,SMILES,Potency
1,COC(=O)c1ccc(CN2CCN(CCC(C)C)C(CCO)C2)cc1 (stereo unspecified),"inconclusive: 9.28 µM [inhibitor, single point]"
2,CC(=O)Nc1ccc(S(=O)(=O)Nc2ccc(=O)n(Cc3ccc(Cl)c(Cl)c3)c2)cc1,"inconclusive: 8.28 µM [inhibitor, partial curve, poor fit]"
3,O=C(O)c1cccc(S(=O)(=O)N2CCCC2)c1,inactive
4,CN(CCc1cnn(C)c1)Cc1cn[nH]c1-c1ccc(-c2ccccc2)cc1,"inconclusive: 9.28 µM [inhibitor, single point]"
5,CCC12C(=O)C(CC)(C(c3ccccc3)=C1c1ccccc1)[C@@H]1C(=O)N(c3ccc(C)cc3)C(=O)C12 (stereo partly specified),"inconclusive: 1.04 µM [inhibitor, partial curve, poor fit]"
6,CCCN(CCC)C(=O)c1cc(S(=O)(=O)N2CCCCC2)c[nH]1,"inconclusive: 18.5 µM [inhibitor, single point]"
7,COc1cc(/C=C2\S/C(=N/S(=O)(=O)Cc3ccccc3)NC2=O)c([N+](=O)[O-])cc1OC,active: 8.28 µM
8,O=C(O)CN1C2=NCCCN2c2ccccc21,inactive
9,COc1cc(N)cc(NC(=O)c2ccncc2)c1,inactive
10,Cc1nn(C(C)C(=O)N2CCOCC2)c(C)c1[N+](=O)[O-] (stereo unspecified),"inconclusive: 18.5 µM [inhibitor, single point]"
11,COc1ccc(C(=O)NCC(=O)N/N=C/c2c(C)[nH]c3ccccc23)cc1OC,"inconclusive: 13.1 µM [inhibitor, single point]"
12,COc1ccc(C(=O)CCc2nc3ccccc3s2)cc1,"inconclusive: 3.7 µM [inhibitor, full curve, poor fit]"
13,Clc1ccc(CN2CCC(Cc3ccccc3)CC2)cc1,active: 8.28 µM
14,CCOC(=O)CCP(=O)(O)C(O)c1ccccc1 (stereo unspecified),inactive
15,O=C(NCc1ccc(-c2nc3ccccc3s2)cc1)c1ccco1,inactive
16,Nc1cccc(-c2cnc3ccccc3n2)c1,inactive
17,CCC(OC(=O)c1nsc(Cl)c1Cl)C(=O)NCc1ccco1 (stereo unspecified),"inconclusive: 18.5 µM [inhibitor, single point]"
18,COc1cc(/C=N/O)cc(Br)c1OS(=O)(=O)c1ccc(C)cc1,"inconclusive: 18.5 µM [inhibitor, single point]"
19,Cc1ccc(NC(=O)CSc2nc(=O)n(CCN3CCOCC3)c3c2CCCC3)cc1,"inconclusive: 14.7 µM [inhibitor, partial curve, poor fit]"
20,O=C(COc1ncnc2scc(-c3ccc(Cl)cc3)c12)NCc1ccco1,"inconclusive: 4.15 µM [inhibitor, partial curve, poor fit]"
21,Cc1ccc(-n2c(C)cc(C(=O)OCC(=O)N(C)C3CCS(=O)(=O)C3)c2C)cc1 (stereo unspecified),inactive
22,NNC(=O)CSCc1nc(-c2ccc(Cl)cc2)cs1,"inconclusive: 13.1 µM [inhibitor, single point]"
23,CC(=O)N1CCN(c2ccc(NC(=O)c3cc4ccccc4o3)cc2)CC1,"inconclusive: 9.28 µM [inhibitor, single point]"
24,O=[N+]([O-])c1cccc(-c2cnc3ccccc3n2)c1,inactive

# 3 entries from above in a different format.
row	SMILES	Potency
3	O=C(O)c1cccc(S(=O)(=O)N2CCCC2)c1	inactive
5	CCC12C(=O)C(CC)(C(c3ccccc3)=C1c1ccccc1)[C@@H]1C(=O)N(c3ccc(C)cc3)C(=O)C12 (stereo partly specified)	inconclusive: 1.04 µM [inhibitor, partial curve, poor fit]
16	Nc1cccc(-c2cnc3ccccc3n2)c1	inactive

# Continued.

row,SMILES,Potency
1,Cc1ccc([N+](=O)[O-])cc1NC(=O)c1ccccc1,active: 2.08 µM
2,O=C(OCCOc1ccc(F)cc1)c1ccc(S(=O)(=O)N2CCCC2)cc1,"inconclusive: 13.1 µM [inhibitor, single point]"
3,Cc1cc(-n2c(SCC(=O)NCc3cccs3)nc3n[nH]c(C)c3c2=N)ccc1Cl,inactive
4,O=C(Nc1cc2c3c(c1)CC(=O)N3CCC2)c1ccc(Br)cc1,"inconclusive: 10.4 µM [inhibitor, single point]"
5,COc1ccc(CCNC(=O)[C@H](C)N2C(=O)N3CCc4c([nH]c5ccccc45)[C@@]3(C)C2=O)cc1,"inconclusive: 18.5 µM [inhibitor, single point]"
6,O=C(N/N=C(\c1ccccc1)c1cccnc1)c1cccc(F)c1,"inconclusive: 0.329 µM [inhibitor, full curve, poor fit]"
7,O=C(Nc1nnc(-c2ccco2)s1)c1ccccc1,inactive
8,Cc1ccc(S(=O)(=O)N2CCOCC2)cc1NC(=O)CSc1nnc(NC2CC2)s1,"inconclusive: 9.28 µM [inhibitor, partial curve, poor fit]"
9,O=C(NCCc1ccccc1)c1cc2sccc2n1Cc1ccccc1,"inconclusive: 9.28 µM [inhibitor, single point]"
10,O=C(CCCc1ccccc1)Nc1cccc(C(=O)O)c1,"inconclusive: 2.94 µM [inhibitor, full curve]"
11,N#Cc1ccc(Nc2ccccc2)c(N)c1,"inconclusive: 5.22 µM [inhibitor, single point]"
12,O=[N+]([O-])c1cccc(CNc2ccc3c(c2)CCC3)c1,inactive
13,CNC(=O)CSc1nnc(-c2ccco2)n1-c1cccc(C)c1C,"inconclusive: 18.5 µM [inhibitor, partial curve, poor fit]"
14,O=C(CC1C(=O)NCCN1Cc1cccc(C(F)(F)F)c1)NCCc1cnccn1 (stereo unspecified),active: 2.08 µM
15,COCC1CCN(C(=O)C2CCC(=O)N(Cc3ccc(Cl)cc3)C2)CC1 (stereo unspecified),"inconclusive: 20.8 µM [inhibitor, partial curve, poor fit]"
16,COc1cc(/C=C/C(=O)OCC(=O)Nc2ccccc2Sc2ccc(Cl)cc2)ccc1O,"inconclusive: 18.5 µM [inhibitor, single point]"
17,COc1ccc(C2=NN(c3ccccc3)C(c3ccc(OC)c(OC)c3)C2)cc1 (stereo unspecified),"inconclusive: 0.928 µM [inhibitor, partial curve, poor fit]"
18,O=C(Nc1nccs1)C12CC3CC(C1)CC(C(=O)Nc1nccs1)(C3)C2,"inconclusive: 9.28 µM [inhibitor, single point]"
19,Cn1ncc(Cl)c1C(=O)Nc1nnc(C2CC2)s1,inactive
20,COc1ccc(O)c(CN2CCN(CCCc3ccccc3)C(CCO)C2)c1 (stereo unspecified),"inconclusive: 16.5 µM [inhibitor, single point]"
21,N#CC(C#N)=NNc1ccc(-n2ccc(C(F)(F)F)n2)cc1,"inconclusive: 4.15 µM [inhibitor, partial curve]"
22,CC(=O)c1sc(NC(=O)c2cc(S(=O)(=O)N3CCOCC3)ccc2F)nc1C,"inconclusive: 18.5 µM [inhibitor, single point]"
23,CCN(C(=S)Nc1ccc(Oc2ccccc2)cc1)c1ccccc1,"inconclusive: 16.5 µM [inhibitor, single point]"
